For at least one compound, name, drawing or mass did not settle the structure.
Experiments:
[1] = biological target: T1, THR-α ligand-binding domain (H6-THR-α) (Homo sapiens, UniProt P10827); experiment: Co-activated peptide recruitment test of THR-α/RXR/GRIP1 (TR_LBD agonist detection, HTRF); type: biochemical; conditions: TR_α
T1 construct: made in house; host or cells: Escherichia coli BL21 (DE3), vector pET28a
T1 sequence (P10827 148-410 isoform P10827-2 limits assumed): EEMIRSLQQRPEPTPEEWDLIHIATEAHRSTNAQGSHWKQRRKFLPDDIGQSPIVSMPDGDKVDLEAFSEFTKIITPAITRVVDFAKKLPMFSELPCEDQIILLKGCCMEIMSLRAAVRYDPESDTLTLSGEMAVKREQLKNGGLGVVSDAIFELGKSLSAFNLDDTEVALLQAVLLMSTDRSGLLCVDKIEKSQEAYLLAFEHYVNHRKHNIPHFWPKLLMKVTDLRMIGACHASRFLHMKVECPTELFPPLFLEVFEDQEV
T1 sequence (P19793 225-462 partner limits assumed): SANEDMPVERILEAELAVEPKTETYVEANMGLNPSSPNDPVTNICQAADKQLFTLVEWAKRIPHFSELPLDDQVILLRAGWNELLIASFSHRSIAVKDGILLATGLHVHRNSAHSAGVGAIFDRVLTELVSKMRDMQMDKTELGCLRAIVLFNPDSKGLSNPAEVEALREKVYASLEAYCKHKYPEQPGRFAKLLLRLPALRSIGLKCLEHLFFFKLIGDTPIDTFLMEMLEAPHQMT
T1 sequence (Q15596 679-703 partner limits assumed): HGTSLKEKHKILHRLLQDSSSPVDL
Description: A ligand binding domain of THR-β (amino acids 148-410) (H6-THR-β) and a ligand binding domain of THR-α (amino acids 202-461) (H6-TRα) were cloned into E. coli expression vector pET28a (Novagen, Milwaukee, Wis.) containing N-terminal six His sequences. The resulting recombinant six-His-tagged protein was produced in E. coli BL21(DE3) cells. The cells were grown in Terrific Broth (self-used self-prepared Bacto tryptone (3.3%, w/v), Difico yeast extract (2.0%, w/v) and NaCl (0.5%, w/v) medium), incubated at 25° C. for 24 hours using a shake flask in 0.2 mM IPTG, harvested or dissolved with 5 volumes of buffer A (0.05 M Tris, 0.3 M NaCl, 1% W/V betaine, 0.01 M imidazole, 0.02 M b-mercaptoethanol, pH 8.0). Lysozyme (1.0 mg/ml, Sigma) and CompleteProtease Inhibitor Cocktail (Roche Diagnostics Gmbh) were added to the slurry and the solution was sonicated for one minute and 5 times at 4° C. The suspension was centrifuged at 127,300 RCF for 2 hours in a Ti45 Beckmann rotor and the supernatant was loaded onto an NI NTAAgarose (Quigen 30210) column. […]
30 microliters of H6-THR-β (50 nM) or H6-THR-α in 50 mM Hepes, pH 7.0, 1 mM DTT, 0.05% NP40 and 0.2 mg/ml BSA (binding buffer) were mixed with an equal volume of EE-RxRα (50 nM) in the binding buffer. […] HTRF signal was read on a Victor5 reader (PerkinElmer Life and Analytical Sciences). EC50 was calculated. […]

[2] = biological target: T2, THR-β ligand-binding domain (H6-THR-β) (Homo sapiens, UniProt P10828); experiment: Co-activated peptide recruitment test of THR-β/RXR/GRIP1 (TR_LBD agonist detection, HTRF); type: biochemical; conditions: for Maximum activity ratio (A520/A495): TR_β; for α/β: ratio TR_α EC50 / TR_β EC50
T2 construct: made in house; host or cells: Escherichia coli BL21 (DE3), vector pET28a
T2 sequence (P10828 217-461 limits assumed): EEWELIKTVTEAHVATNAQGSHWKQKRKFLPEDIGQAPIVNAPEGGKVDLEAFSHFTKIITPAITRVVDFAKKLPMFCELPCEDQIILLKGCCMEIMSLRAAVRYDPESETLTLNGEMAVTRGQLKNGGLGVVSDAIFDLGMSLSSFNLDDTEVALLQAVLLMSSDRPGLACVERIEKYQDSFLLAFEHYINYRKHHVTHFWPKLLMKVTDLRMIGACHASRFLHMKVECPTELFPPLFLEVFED
T2 sequence (P19793 225-462 partner limits assumed): T1 sequence (P19793 225-462 partner limits assumed)
T2 sequence (Q15596 679-703 partner limits assumed): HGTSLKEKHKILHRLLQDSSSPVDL
Description: A ligand binding domain of THR-β (amino acids 148-410) (H6-THR-β) and a ligand binding domain of THR-α (amino acids 202-461) (H6-TRα) were cloned into E. coli expression vector pET28a (Novagen, Milwaukee, Wis.) containing N-terminal six His sequences. The resulting recombinant six-His-tagged protein was produced in E. coli BL21(DE3) cells. The cells were grown in Terrific Broth (self-used self-prepared Bacto tryptone (3.3%, w/v), Difico yeast extract (2.0%, w/v) and NaCl (0.5%, w/v) medium), incubated at 25° C. for 24 hours using a shake flask in 0.2 mM IPTG, harvested or dissolved with 5 volumes of buffer A (0.05 M Tris, 0.3 M NaCl, 1% W/V betaine, 0.01 M imidazole, 0.02 M b-mercaptoethanol, pH 8.0). Lysozyme (1.0 mg/ml, Sigma) and CompleteProtease Inhibitor Cocktail (Roche Diagnostics Gmbh) were added to the slurry and the solution was sonicated for one minute and 5 times at 4° C. The suspension was centrifuged at 127,300 RCF for 2 hours in a Ti45 Beckmann rotor and the supernatant was loaded onto an NI NTAAgarose (Quigen 30210) column. After washing with the buffer A, […] or H6-THR-α was eluted with the buffer A containing 0.25 M imidazole.
30 microliters of H6-THR-β (50 nM) or H6-THR-α in 50 mM Hepes, pH 7.0, 1 mM DTT, 0.05% NP40 and 0.2 mg/ml BSA (binding buffer) were mixed with an equal volume of EE-RxRα (50 nM) in the binding buffer. […] Aliquot ([…]) was transferred to a 384-well black microtiter plate. HTRF signal was read on a Victor5 reader (PerkinElmer Life and Analytical Sciences). EC50 was calculated.
Gene clones expressing a ligand-binding domain (amino acids 148-410) of THR-β (H6-THR-β) and a ligand-binding domain (amino acids 202-461) of THR-α (H6-THR-α) were inserted into an Escherichia coli expression vector pET28a, and the expression vector contained one N-terminal 6-His sequence. The expression vector was introduced into an Escherichia coli BL21 (DE3) strain to produce a recombinant protein with a His tag. […] After finishing culturing, a bacterium in culture was collected, and the collected bacterium was resuspended with a lysis solution (0.05 M Tris, 0.3 M NaCl, 1% W/V betaine, 0.01 M imidazole, 0.02 M β-mercaptoethanol, and pH 8.0) with a volume 5 times that of the bacterium, and lysozyme and protease inhibitors were added at the same time, the treated bacteria was subjected to ultrasonic lysis (5 times per minute) in ice bath (4° C.). A lysed suspension was centrifuged at 127300 RCF for 2 hours, a supernatant was loaded on a NI_NTA agarose (Quigen 30210) column, and after washing with a buffer A, an H6-TRβ or H6-TRα protein was eluted with the buffer A containing 0.25 M imidazole. […]

SMILES | Maximum activity ratio (A520/A495) [1] | Maximum activity ratio (A520/A495) [2] | α/β [2]
Cn1cnc2cc(Oc3c(Cl)cc(-n4nc(C#N)c(=O)[nH]c4=O)cc3Cl)ccc21 [Compound 2, 2-(3,5-dichloro-4-((1-methyl-1H-benzo[d]imidazol-5-yl)oxy)phenyl)-3,5-dioxo-2,3,4,5-tetrahydro-1,2,4-triazine-6-carbonitrile] | 1.54 | 1.21 | >32.49
N#Cc1nn(-c2cc(Cl)c(Oc3ccc4ncn(C5CCN(Cc6ccccc6)C5)c4c3)c(Cl)c2)c(=O)[nH]c1=O (stereo not drawn) [Compound 7, 2-(4-((1-(1-benzylpyrrolidin-3-yl)-1H-benzo[d]imidazol-6-yl)oxy)-3,5-dichlorophenyl)-3,5-dioxo-2,3,4,5-tetrahydro-1,2,4-triazine-6-carbonitrile] | 1.43 | 1.24 | >374.41

— US12630536B2, “Cyanotriazine derivative, preparation method therefor, and application thereof” (Chengdu Fanxi Biopharma Co., LTD., priority 2020, dated 2026)
